In patent US20120065365A1, “Stable Radiopharmaceutical Compositions and Methods for Their Preparation” (BRACCO IMAGING S.P.A., priority 2003, published 2012):
Some of these results come from one statement about several compounds together.

Legend:
[1] = Radiostability (RCP, Met═O by HPLC) of preformed ^177Lu-A with individual amino acids added (Example 1); type: physicochemical; conditions: amino acid 6.6 mg/mL, room temperature
Description: (§1) The injection volume was 20 μL.
Solutions of the individual amino acids L-Methionine, L-Selenomethionine, L-cysteine HCl.H2O, L-Tryptophan, L-Histidine, and Glycine were prepared at a concentration of 10 mg/mL in 10 mM Dulbecco's phosphate-buffered saline, pH 7.0 [PBS].
The final radioactive concentration of each sample was ˜20 mCi/mL.

[2] = type: physicochemical; conditions: methionine-containing Radiolysis Protecting Solution, room temperature
Description: as §1
A Radiolysis Protecting Solution was prepared to contain 10 mg/mL gentisic acid; 50 mg/mL ascorbic acid sodium salt; 2 mg/mL HSA; 2.98 mg/mL L-methionine, 0.9% (v:v) benzyl alcohol and 1 mg/mL of Na2EDTA.2H2O in 0.05 M, pH 5.3 citrate buffer. […] The mixture was incubated at 100° C. for 5 min, and then cooled to room temperature with a water bath. A 1-mL aliquot of the Radiolysis Protecting Solution was immediately added. The reaction vial was stored in an autosampler chamber and the stability was analyzed by Reversed Phase HPLC over time, using HPLC Methods 3 and 4. The results obtained for ^177Lu-B are shown in the chromatograms in FIG. 9.

Molecule	RCP for 48 hours [1]	radiochemical purity after 120 hours [2]
C[Se]CC[C@H](N)C(=O)O [L-Selenomethionine]	greater than 90%	–
^177Lu-B: the ^177Lu complex of DOTA-Gly-Abz4-Gln-Trp-Ala-Val-Gly-His-Leu-Met-NH2	–	> 99%
^177Lu-A: the ^177Lu complex of DOTA-Gly-ACA-Gln-Trp-Ala-Val-Gly-His-Leu-Met-NH2	–	> 99%
